This note sets out measurements from patent publication US20130011479A1, “DOUBLE-LAYER PHARMACEUTICAL FORMULATIONS CONTAINING OPIOID AGONISTS AND ANTAGONISTS” (L. MOLTENI & C. DEI FRATELLI ALITTI SOCIETA' DI ESERCIZIO …, priority 2010, published 2013).

This data set is described as follows: Intrathecal screening of patients treated with opioids: adverse events / side-effects monitored at several time points. The settings on record: without naltrexone. Set-up: key: (0) = none; (1) = mild; (2) = moderate; (3) = intense; (4) = severe. Format: in vivo. The procedure:
A dose of opioids was administered with or without naltrexone and the adverse events or side-effects and anti-nociceptive effects were monitored at several time points.
In particular, patients with chronic (non-oncological) spinal pain and oncological patients in the non-terminal phase with evidence of side effects after minimum doses of opioids were monitored.

As for `CN1CC[C@]23c4c5ccc(O)c4O[C@H]2[C@@H](O)C=C[C@H]3[C@H]1C5` [morphine], the urinary retention entry was “retention (1)” (Algoneurodystrophy, 6-8 h); 3 (Lumbago, 6 h); “pruritus (3), urinary retention (3)” (Lumbago, 8 h); “appetite, urinary retention,” (Lumboischialgia in diabetic patients (VAS 6-7)); “ing (2), urinary retention (2)” (Right lumboischialgia); “urinary retention (2)” (Secondary bone and marrow malignancies (patient at r66)).
